Reference: PubChem BioAssay AID1259254 (NCATS, 2017)
Screen: 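Genome-wide screen for genes that prevent DNA re-replication in cancer cells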 (primary screen). System: human HCT116 colorectal cancer cells. Reagent: single siRNA against human genes. Time to read-out: 3 days. Detection: 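Nuclei stained with Hoechst and imaged; cell-cycle phase assigned by DNA content; G2 share scaled per plate, non-targeting siRNA 0%, GMNN siRNA 100%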. Reading the numbers: G2 robust z-score: higher = more G2 cells, more excess DNA replication. Hit rule: 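Active siRNAs have a G2 robust z of 5 or more median absolute deviations over the median, which in these data means about 38% or higher of GMNN control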.
This is an unselected part of about 59,000 reagents. Of all reagents, about 1,550 (2.6%) were called active. 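G2 share is only a proxy for re-replication; each gene was hit by three separate siRNAs, and active genes were retested.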 Reagents against one gene are numbered here. Not all columns of the deposit are shown. Not given: the amount of reagent.

G2 robust z-score, by gene symbol and reagent
RIMKLA (GeneID 284716): #1 -0.601 inactive; #2 -0.291 inactive; #3 1.26 inactive
NPBWR1 (GeneID 2831): #1 0.173 inactive; #2 -1.1 inactive; #3 -0.422 inactive
RCL1 (GeneID 10171): #1 -0.188 inactive; #2 0.132 inactive; #3 1.44 inactive
RSL24D1P11 (GeneID 284288): #1 3.22 inactive; #2 -0.024 inactive; #3 -0.279 inactive
UBB (GeneID 7314): #1 0.96 inactive; #2 0.373 inactive; #3 -0.459 inactive
NSMCE3 (GeneID 56160): #1 0.812 inactive; #2 -0.395 inactive; #3 -0.676 inactive
AMPH (GeneID 273): #1 2.08 inactive; #2 1.9 inactive; #3 -0.149 inactive
OR4S1 (GeneID 256148): #1 0.0167 inactive; #2 3.05 inactive; #3 0.139 inactive
RPS14P9 (GeneID 644119): #1 -0.242 inactive; #2 -0.776 inactive; #3 1.11 inactive
SLC52A2 (GeneID 79581): #1 0.261 inactive; #2 1.87 inactive; #3 -1.19 inactive
ARHGAP39 (GeneID 80728): #1 -0.0848 inactive; #2 1.21 inactive; #3 -0.0855 inactive
PEX3 (GeneID 8504): #1 -1.25 inactive; #2 0.795 inactive; #3 0.538 inactive

Quoted from the entries so far (12 entries):
G2 robust z-score, by gene symbol and reagent
NPBWR1 (GeneID 2831): #1 0.173 inactive; #2 -1.1 inactive; #3 -0.422 inactive
RCL1 (GeneID 10171): #1 -0.188 inactive; #2 0.132 inactive; #3 1.44 inactive
RSL24D1P11 (GeneID 284288): #1 3.22 inactive; #2 -0.024 inactive; #3 -0.279 inactive
UBB (GeneID 7314): #1 0.96 inactive; #2 0.373 inactive; #3 -0.459 inactive

Continued:
G2 robust z-score, by gene symbol and reagent
RPL29P30 (GeneID 729611): #1 2.95 inactive; #2 4.31 inactive; #3 -0.62 inactive
CLEC9A (GeneID 283420): #1 0.585 inactive; #2 1.24 inactive; #3 0.688 inactive
C18orf63 (GeneID 644041): #1 0.769 inactive; #2 0.0462 inactive; #3 1.8 inactive
ZFYVE21 (GeneID 79038): #1 -0.576 inactive; #2 -0.248 inactive; #3 -0.0392 inactive
KIF27 (GeneID 55582): #1 -0.927 inactive; #2 0.0517 inactive; #3 -0.633 inactive
ZACN (GeneID 353174): #1 0.174 inactive; #2 1.99 inactive; #3 -0.0497 inactive
CCM2L (GeneID 140706): #1 0.489 inactive; #2 0.524 inactive; #3 -0.0988 inactive
CTRL (GeneID 1506): #1 -0.478 inactive; #2 0.277 inactive; #3 -0.678 inactive
DEFB132 (GeneID 400830): #1 -0.777 inactive; #2 1.2 inactive; #3 0.495 inactive
AFMID (GeneID 125061): #1 -0.952 inactive; #2 1.32 inactive; #3 0.03 inactive
UNKL (GeneID 64718): #1 1.17 inactive; #2 0.453 inactive; #3 -0.646 inactive; #4 -0.519 inactive; #5 2.02 inactive; #6 0.58 inactive
